Measured values as given in PubChem BioAssay AID2685 (National Center for Advancing Translational Sciences (NCATS), 2010).
This is one part of the list. Shown are side measurements of this screen, not its main read-out; they come without a call. Most of these compounds were active or inconclusive in the main read-out, so they are no random draw. The note in brackets gives the kind of curve behind each potency; many fits are weak.

Assay: qHTS Assay for Lipid Storage Modulators in Drosophila S3 Cells;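 on cell number change: cells counted by Cell Tracker Red CMTPX staining in the red channel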
Details: BODIPY lipid droplet fluorescence, 18-24 h; for cell number change: measured here: cell count max response, cells fed with added oleic acid
In short: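 Drosophila S3 cells got compounds at several concentrations plus oleic acid (400 uM solution). Laser-scanning cytometry with 488 nm excitation read lipid droplets at 500-530 nm and cells at 575-640 nm. Percent activity was relative to 20 uM Triacsin C.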

[1] = measured here: lipid fluorescence (Fed channel) AC50, cells fed with added oleic acid
[2] = measured here: cell number channel AC50, cells fed with added oleic acid

CC(Oc1ccccc1)C(=O)N=C1SC2CS(=O)(=O)CC2N1c1ccccc1 (centres undefined)
cell number change: -23.4% | AC50 [1]: 0.651 µM [falling, single point]

CNc1ccc(/C=C(\CCC(=O)O)c2nc3ccccc3s2)cc1[N+](=O)[O-]
cell number change: -1.58% | AC50 [1]: 7.31 µM [rising, partial curve]

CCCC(O)(CCC)C(=O)NNc1ccccc1
cell number change: 75.6%

Nc1nonc1-c1nc2ccccc2n1CC(=O)N/N=C/c1ccc(-c2ccccc2C(=O)O)o1
AC50 [1]: 20.6 µM [rising, single point]

COCCn1c(-c2ccc(Cl)cc2)cnc1SCC(=O)NCCc1ccc(OC)c(OC)c1
cell number change: -13.7%

O=C(CSc1ncccn1)N1CCC(Cc2ccccc2)CC1
cell number change: 88%

CC(=O)Nc1c(C(=O)C2CC2)oc2ccccc12
cell number change: 24.2% | AC50 [1]: 18.4 µM [rising, partial curve]

CC1CCN(S(=O)(=O)c2ccc(C(=O)NC3CCS(=O)(=O)C3)cc2)CC1 (centres undefined)
cell number change: 21.8% | AC50 [1]: 29.1 µM [rising, single point]

COC(=O)C1CCN(C(=O)CSc2ccccc2)CC1
cell number change: -51.4% | AC50 [2]: 6.51 µM [falling, full curve] | AC50 [1]: 2.91 µM [falling, full curve, poor fit]

COC(=O)c1[nH]c2cccc(C)c2c1NC(=O)CN1CCN(c2ccccc2OC)CC1
cell number change: 7.56% | AC50 [1]: 32.6 µM [rising, single point]

Nc1nc(-c2ccc(Br)cc2)c(S(=O)(=O)c2ccccc2)s1
cell number change: 9.26% | AC50 [2]: 6.51 µM [rising, single point] | AC50 [1]: 6.51 µM [rising, single point]

O=C(COC(=O)c1ccc(CO)cc1)Nc1ccc2ccccc2c1
cell number change: -5.55% | AC50 [2]: 6.51 µM [rising, single point] | AC50 [1]: 0.00461 µM [falling, full curve, poor fit]

N#Cc1c(NCCCO)nc(NCc2ccccc2)c2c1CCN(Cc1ccccc1)C2
cell number change: -23.2% | AC50 [1]: 29.1 µM [falling, single point]

COCc1nnc(NC(=O)c2cccs2)s1
cell number change: -4.98% | AC50 [1]: 0.103 µM [falling, full curve, poor fit]

CCn1cc([N+](=O)[O-])c(C(=O)Nc2ccn(Cc3ccccc3F)n2)n1
cell number change: 90.8% | AC50 [2]: 18.4 µM [rising, single point] | AC50 [1]: 6.51 µM [falling, single point]

O=C(NCc1ccccc1Cl)c1ccc(S(=O)(=O)Nc2cccc(C(F)(F)F)c2)cc1
cell number change: -31.6% | AC50 [2]: 1.03 µM [falling, full curve, poor fit] | AC50 [1]: 32.6 µM [falling, single point]

CC1CCN(c2nc(/C=C/c3ccccc3)nc3ccccc23)CC1
cell number change: -46.8% | AC50 [2]: 13 µM [falling, partial curve] | AC50 [1]: 16.4 µM [falling, single point]

O=C(CNc1ccccc1)NN=C1CCCC1
cell number change: 2.69% | AC50 [2]: 1.3 µM [rising, full curve] | AC50 [1]: 1.16 µM [rising, full curve]

CCC(C(=O)NC1CCCC1)N(C(=O)Cn1nnc(-c2ccc(C)o2)n1)c1cccc(OC)c1 (centres undefined)
cell number change: 11.3% | AC50 [1]: 29.1 µM [rising, single point]

Cc1ccc(O)c(-c2cc(C(F)(F)F)[nH]n2)c1
cell number change: 8.68% | AC50 [1]: 23.1 µM [rising, single point]

Cc1ccc(NS(=O)(=O)c2ccc(C(=O)N3CCCCCC3)cc2)cc1
cell number change: -22.7% | AC50 [1]: 29.1 µM [falling, single point]

COc1ccc(NC(=O)CN(c2cccc(C(F)(F)F)c2)S(C)(=O)=O)cc1OC
cell number change: 40% | AC50 [2]: 16.4 µM [rising, single point] | AC50 [1]: 5.8 µM [rising, full curve]

CC(C)CN(CCCNC(=O)CN1C(=O)COc2ccc(S(=O)(=O)N3CCCCCC3)cc21)CC(C)C
cell number change: 0.57% | AC50 [1]: 0.00651 µM [rising, full curve, poor fit]

O=C1CC(=O)Nc2cc(S(=O)(=O)N3CCOc4ccccc43)ccc2N1
cell number change: -1.15% | AC50 [1]: 0.0291 µM [rising, full curve, poor fit]

COCCn1nnnc1C(c1ccc(C(F)(F)F)cc1)N1CCOCC1 (centres undefined)
cell number change: 37.2% | AC50 [2]: 18.4 µM [rising, single point]

COc1ccc(OC)c(S(=O)(=O)N2CCN(C(=O)c3cc(C4CC4)nn3-c3ccccc3)CC2)c1
cell number change: -20.2% | AC50 [1]: 29.1 µM [falling, single point]

CCOC(=O)C1=C(C)Nc2nc(C)nn2C1c1cc(OC)ccc1OC (centres undefined)
cell number change: 20.3% | AC50 [1]: 14.6 µM [rising, partial curve]

COc1cc(-c2nnc(SCC(=O)NC3CCS(=O)(=O)C3)o2)cc(OC)c1OC (centres undefined)
cell number change: 33.7%

COc1cc(C(=O)NCC(c2cccs2)N2CCOCC2)c([N+](=O)[O-])cc1OC (centres undefined)
AC50 [2]: 6.51 µM [rising, single point]

C=CCNC(=S)N/N=C/c1ccc(C(C)(C)C)cc1
cell number change: -39.9% | AC50 [2]: 29.1 µM [falling, single point] | AC50 [1]: 29.1 µM [falling, single point]

COc1ccc(NC(=O)CN(C)C(=O)c2cccc(S(=O)(=O)Nc3ccccc3Cl)c2)cc1
cell number change: 36.8% | AC50 [2]: 11.6 µM [rising, partial curve, poor fit] | AC50 [1]: 2.31 µM [rising, partial curve]

COC(=O)C(C)N(c1ccc(C)cc1)S(=O)(=O)c1c(C)[nH]c(=O)[nH]c1=O (centres undefined)
AC50 [1]: 20.6 µM [falling, partial curve]

COc1ccc(S(=O)(=O)NC(N)=NCCc2ccccc2OC)cc1
cell number change: 25.4% | AC50 [1]: 20.6 µM [rising, single point]

CCc1nnc(NC(=O)CSc2nc3[nH]ncc3c(=O)[nH]2)s1
cell number change: -44.6% | AC50 [2]: 2.31 µM [falling, full curve, poor fit] | AC50 [1]: 1.64 µM [falling, partial curve]

Cc1ccc(N)c2c1OCCC2=O
cell number change: -6.97% | AC50 [1]: 20.6 µM [rising, single point]

Oc1c(N=NC(=S)Nc2ccccc2F)c2ccccc2n1Cc1ccccc1F
cell number change: -54.8% | AC50 [2]: 18.4 µM [falling, partial curve] | AC50 [1]: 18.4 µM [falling, partial curve]

O=C(O)CCC(=O)Nc1ccc(Cc2ccc(NC(=O)CCC(=O)O)c(O)c2)cc1O
cell number change: 32.9% | AC50 [2]: 23.1 µM [rising, single point] | AC50 [1]: 29.1 µM [falling, single point]

CC(=O)Oc1ccc(N(C(C)=O)S(=O)(=O)c2cc([N+](=O)[O-])ccc2C)cc1
cell number change: -30.6% | AC50 [2]: 29.1 µM [falling, single point] | AC50 [1]: 1.46 µM [falling, single point]

Cc1ccc(N=Nc2c(N)nn3c(C)cc(C)nc23)cc1
cell number change: -9.2% | AC50 [1]: 0.651 µM [rising, full curve]

COC(=O)c1ccc2c(=O)[nH]c(CSc3nc(C)cs3)nc2c1
cell number change: 41% | AC50 [2]: 29.1 µM [rising, single point] | AC50 [1]: 18.4 µM [rising, single point]

CC(=O)c1ccccc1OCCn1nc(C(=O)O)c2ccccc2c1=O
cell number change: 30.3% | AC50 [2]: 0.00517 µM [rising, full curve, poor fit]

O=C(CCCn1ncn2c(cc3occc32)c1=O)NCc1cccc(Cl)c1
cell number change: 1.89% | AC50 [2]: 0.82 µM [rising, full curve, poor fit] | AC50 [1]: 0.651 µM [rising, partial curve, poor fit]

CC(C)C(=O)Nc1ccc(NC(=O)c2cc3ccccc3o2)cc1
cell number change: 87.3% | AC50 [2]: 5.17 µM [rising, partial curve, poor fit] | AC50 [1]: 9.2 µM [rising, partial curve]

Cc1cc(OCC(=O)Nc2ccccc2C)no1
cell number change: -3.62% | AC50 [1]: 0.0291 µM [falling, full curve, poor fit]

COc1ccc(S(=O)(=O)N2CCN(CC(=O)Nc3sccc3C(N)=O)CC2)cc1OC
cell number change: -5.33% | AC50 [1]: 23.1 µM [falling, single point]

Cc1cccc(CSc2ccc3nnc(-c4cccnc4)n3n2)c1
cell number change: 8.08% | AC50 [1]: 0.517 µM [rising, partial curve, poor fit]

Cc1ccc(-c2csc(NC(=O)CN3CCOCC3)n2)cc1
cell number change: 10.5% | AC50 [1]: 6.31 µM [falling, partial curve, poor fit]

NC(N)=Nc1nc2ccc([N+](=O)[O-])cc2[nH]1
cell number change: -29.8% | AC50 [1]: 29.1 µM [falling, single point]

Cc1c(NC(=O)c2cc(-c3cccc(Cl)c3)on2)c(=O)n(-c2ccccc2)n1C
cell number change: 10% | AC50 [1]: 0.651 µM [rising, full curve, poor fit]

O=C(NCN1CCCCC1)c1cnccn1
cell number change: -112% | AC50 [2]: 18.4 µM [falling, partial curve] | AC50 [1]: 20.6 µM [falling, partial curve]

CCn1c(=Nc2ccc(N3CCOCC3)cc2)ccc2ccccc21
AC50 [1]: 0.411 µM [falling, single point]

O=C(OCc1nnc(-c2ccc([N+](=O)[O-])cc2)o1)C1CC(=O)N(CCc2ccccc2)C1 (centres undefined)
cell number change: -0.139% | AC50 [1]: 29.1 µM [rising, single point]

CSc1cc(-c2ccncc2)nc(-c2ccc(Cl)cc2)c1
cell number change: 21.2% | AC50 [1]: 2.91 µM [rising, full curve, poor fit]

CCOc1ccccc1N(CC(=O)Nc1ccc(OC)cc1OC)S(=O)(=O)c1ccccc1
cell number change: 14.8%

CCOc1ccc(NC(=O)C(CC)NC(=O)c2ccccc2CO)cc1 (centres undefined)
cell number change: -63.3% | AC50 [2]: 29.1 µM [falling, single point]
